PubChem BioAssay AID743121 | NCATS | 2013
Shown is an unselected part of about 26,000 reagents tested. Of all reagents, 167 (0.63%) were called active. 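Calls are per gene from RSA p-values that are not deposited; an individual active-marked siRNA can sensitise only weakly.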 Unmarked entries are inactive. The numbers tell different reagents against one gene apart.

- Screen: 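Knock-downs that sensitise breast cancer cells to camptothecin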 (primary screen)
- Cell system: MDA-MB-231 cells, a human breast cancer line
- Reagent: single siRNA against human genes, 20 nM siRNA (0.8 pmol per well)
- Time to read-out: 120 h (drug added 48 h after transfection, read 72 h later)
- Conditions: camptothecin 20 nM (about EC30) for 72 h; vehicle 0.1% DMSO in parallel plates
- Read-out: 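Cell viability by ATP luminescence (CellTiter-Glo) as % of non-targeting siRNA wells, and the log2 ratio of viability without drug over viability with camptothecin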
- Direction: log2 vehicle/camptothecin viability: higher = stronger sensitisation to camptothecin; viability with camptothecin and viability without drug: higher = more viable cells
- Active means: 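Each gene scored by redundant siRNA activity (RSA) over its individual siRNA ratios; a gene is called active at p < 0.001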

no.	gene	reagent	log2 vehicle/camptothecin viability	viability with camptothecin (% of control)	viability without drug (% of control)
1	ANK3	1	-0.139	71.3	64.7
2	ANK3	2	-0.125	108	99
3	ANK3	3	0.0279	105	107
4	ANK3	4	-0.336	98.1	77.7
5	PHGDH	1	-0.266	82.4	68.5
6	PHGDH	2	-0.141	103	93.1
7	PHGDH	3	0.169	107	121
8	LRP5L	1	-0.361	73	56.9
9	LRP5L	2	-0.579	37	24.7
10	LRP5L	3	-0.318	46	36.9

Continued; the last 4 above are carried over.
no.	gene	reagent	log2 vehicle/camptothecin viability	viability with camptothecin (% of control)	viability without drug (% of control)
7	PHGDH	3	0.169	107	121
8	LRP5L	1	-0.361	73	56.9
9	LRP5L	2	-0.579	37	24.7
10	LRP5L	3	-0.318	46	36.9
11	LAMB2	1	-0.216	78.8	67.8
12	LAMB2	2	-0.0454	90.3	87.5
13	LAMB2	3	-0.237	66.5	56.4
14	BCL2L2	1	-0.688	85.5	53.1
15	BCL2L2	2	0.0897	93.7	99.7
16	BCL2L2	3	0.132	79	86.6
17	BCL2L2	4	0.356	43.2	55.3
18	ABCC5	1	-0.0796	73.7	69.7
19	ABCC5	2	-0.227	112	95.8
20	ABCC5	3	-0.251	124	104
21	ABCC5	4	-0.0103	64.7	64.2
22	MRPS28	1	-0.0814	81.7	77.2
23	MRPS28	2	-0.106	102	95
24	MRPS28	3	-0.194	99.1	86.6
25	NACA	1	-0.259	41.2	34.4
26	NACA	2	0.303	2.33	2.87
27	NACA	3	-0.0523	48.7	47
28	NACA	4	-0.135	66.5	60.6
